Measurements taken from patent US20250075147A1, “FRAGRANCE AND FLAVOR COMPOSITIONS COMPRISING NEW FLAVOR AND FRAGRANCE INGREDIENTS” (priority 2023, published 2025).

Legend:
[1] = test system: odor evaluation panel; assay: Odor evaluation panel rating of odorants by Rate-All-That-Apply (RATA) method with 55-word odor lexicon, plus intensity and pleasantness; design: species or system human; settings: for Floral: mean panelist score for odor label floral (RATA); for Fruity: mean panelist score for odor label fruity (RATA); for Spicy: mean panelist score for odor label spicy (RATA); for Sweet: mean panelist score for odor label sweet (RATA); for Pleasantness: mean panelist score for odor pleasantness
[2] = Evaluation by trained and/or certified flavor or fragrance chemists or master perfumers; categorization by commercial prospect; settings: for Rating: category of commercial prospect, (A) highest > (B) > (C) > (D) lowest, (E) requires further study; for Rating (category of commercial prospect): evaluation by trained flavor or fragrance chemists or master perfumers

For `CC(C)(C)N=Cc1ccccc1` [Compound 89, N-tert-butyl-1-phenylmethanimine], the Floral [1] was 0.121, the Fruity [1] was 0.758 and the Spicy [1] was 0.515. For the same molecule, the Sweet [1] was 1.424, the Pleasantness [1] was 4.527 and the Rating [2] was “(D)”.

In the case of `CCCCN(C=O)CCCC` [Compound 29, N,N-dibutyl formamide], the Floral [1] is reported as 0.469, the Fruity [1] is reported as 0.75 and the Spicy [1] is reported as 0.031. For the same molecule, the Sweet [1] was 1.375, the Pleasantness [1] was 5.947 and the Rating [2] was “(D)”.

With `CC(=O)OCCN(C)C` [Compound 370, 2-(dimethylamino)ethyl acetate] the Floral [1] was 0, the Fruity [1] was 0 and the Spicy [1] was 0.028. For the same molecule, the Sweet [1] was 0 and the Rating [2] was “(D)”.

Molecule `CC[C@H](C)[C@H](N)CO.Cl` [Compound 416, L-isoleucinol HCl] has a Floral [1] of 0.111, a Fruity [1] of 0 and a Spicy [1] of 0. The Sweet [1] was 0.611 and the Rating [2] was “(D)”.

With `COc1cc(OC)nc(N)n1` [Compound 413, 4,6-dimethoxypyrimidin-2-amine] the Floral [1] was 0, the Fruity [1] was 0 and the Spicy [1] was 0.057. For the same molecule, the Sweet [1] was 0.057, the Pleasantness [1] was 4.957 and the Rating [2] was “(A)”.

Molecule `NCCCCCCCCCCCCN` [Compound 96, dodecane-1,12-diamine] has a Floral [1] of 0.267, a Fruity [1] of 0 and a Spicy [1] of 0. For the same molecule, the Sweet [1] was 0.267, the Pleasantness [1] was 4.407 and the Rating [2] was “(D)”.

For isobornyl methacrylate [Compound 615], the Fruity [1] was 0, the Spicy [1] was 0.371 and the Sweet [1] was 0.286. The Pleasantness [1] was 6.111 and the “Rating (category of commercial prospect)” value [2] was “(D)”.

In the case of `CN(C)CC#N` [Compound 278, 2-(dimethylamino)acetonitrile], the Floral [1] is reported as 0.031, the Fruity [1] is reported as 0.062 and the Spicy [1] is reported as 0. For the same molecule, the Sweet [1] was 0.062, the Pleasantness [1] was 3.147 and the Rating [2] was “(D)”.

With `O=C(O)CCCC1CCCCC1` [Compound 330, 4-cyclohexylbutanoic acid] the Floral [1] was 0.125, the Fruity [1] was 0.094 and the Spicy [1] was 0.688. For the same molecule, the Sweet [1] was 0.406, the Pleasantness [1] was 4.425 and the Rating [2] was “(D)”.

In the case of `CC1=Cc2ccccc2C1` [Compound 764, 2-methyl-1H-indene], the Floral [1] is reported as 0.361, the Fruity [1] is reported as 0 and the Spicy [1] is reported as 0.083. The Sweet [1] was 0.417 and the “Rating (category of commercial prospect)” value [2] was “(D)”.

`CC(C)(C)OC(=O)C(C)(C)C` [Compound 157, tert-butyl 2,2-dimethylpropanoate] gave a Floral [1] of 0.281, a Fruity [1] of 0 and a Spicy [1] of 0. For the same molecule, the Sweet [1] was 0.75, the Pleasantness [1] was 5.925 and the Rating [2] was “(D)”.

`C1=Cc2cccc3cccc1c23` [Compound 580, acenaphthylene] showed a Floral [1] of 0.061, a Fruity [1] of 0 and a Spicy [1] of 0.182. For the same molecule, the Sweet [1] was 0.182, the Pleasantness [1] was 3.906 and the “Rating (category of commercial prospect)” value [2] was “(D)”.

With `CNCc1cccc2ccccc12` [Compound 554, N-methyl-1-naphthalen-1-ylmethanamine] the Floral [1] was 0.171, the Fruity [1] was 0 and the Spicy [1] was 0.114. The Sweet [1] was 0.086, the Pleasantness [1] was 3.817 and the Rating [2] was “(D)”.

In the case of `CSCC(=O)O` [Compound 927, 2-methylsulfanylacetic acid], the Floral [1] is reported as 0, the Fruity [1] is reported as 0.156 and the Spicy [1] is reported as 0.281. The Sweet [1] was 0, the Pleasantness [1] was 3.194 and the “Rating (category of commercial prospect)” value [2] was “(D)”.

Work on `CCOC(=O)C1CCCCN1C(=O)OC(C)(C)C` (centres unmarked) [Compound 295, 1-O-tert-butyl 2-O-ethyl piperidine-1,2-dicarboxylate] yielded a Floral [1] of 0.765, a Fruity [1] of 1.706 and a Spicy [1] of 0.235. For the same molecule, the Sweet [1] was 1.971, the Pleasantness [1] was 6.365 and the Rating [2] was “(B)”.

`CC1(C)CC(=O)CC(C)(C)N1` [Compound 210, 2,2,6,6-tetramethylpiperidin-4-one] showed a Floral [1] of 0, a Fruity [1] of 0.057 and a Spicy [1] of 0.114. For the same molecule, the Sweet [1] was 0.114, the Pleasantness [1] was 2.991 and the Rating [2] was “(D)”.

With `CC1(C(=O)O)CCCCC1` [Compound 200, 1-methylcyclohexane-1-carboxylic acid] the Floral [1] was 0.273, the Fruity [1] was 0.515 and the Spicy [1] was 0.455. The Sweet [1] was 1.242, the Pleasantness [1] was 4.77 and the Rating [2] was “(D)”.

For `CC(C)OC(=O)CCC(=O)OC(C)C` [Compound 492, dipropan-2-yl butanedioate], the Floral [1] was 0.281, the Fruity [1] was 1.406 and the Spicy [1] was 0.094. For the same molecule, the Sweet [1] was 0.844, the Pleasantness [1] was 6.372 and the Rating [2] was “(A)”.

For `CCOC(=O)C1(C#N)CC1` [Compound 424, ethyl 1-cyanocyclopropane-1-carboxylate], the Floral [1] was 0.472, the Fruity [1] was 0.5 and the Spicy [1] was 0.139. The Sweet [1] was 1.306 and the Rating [2] was “(A)”.

With `CCOc1c(OCC)c(=O)c1=O` [Compound 268, 3,4-diethoxycyclobut-3-ene-1,2-dione] the Floral [1] was 0.125, the Fruity [1] was 0.75 and the Spicy [1] was 0. For the same molecule, the Sweet [1] was 0.531, the Pleasantness [1] was 5.756 and the Rating [2] was “(B)”.

`COc1ccnc(OC)n1` [Compound 259, 2,4-dimethoxypyrimidine] gave a Floral [1] of 0, a Fruity [1] of 0.088 and a Spicy [1] of 0. For the same molecule, the Sweet [1] was 0.529, the Pleasantness [1] was 5.671 and the Rating [2] was “(A)”.

Molecule `CCCCC(=O)NN` [Compound 432, pentanehydrazide] has a Floral [1] of 0.094, a Fruity [1] of 0.094 and a Spicy [1] of 0.031. For the same molecule, the Sweet [1] was 0, the Pleasantness [1] was 3.522 and the Rating [2] was “(C)”.

In the case of `CN(C)C#N` [Compound 415, dimethylcyanamide], the Floral [1] is reported as 0.531, the Fruity [1] is reported as 0.5 and the Spicy [1] is reported as 0.438. The Sweet [1] was 1.094, the Pleasantness [1] was 4.612 and the Rating [2] was “(D)”.

Molecule `N#CCC(=O)c1ccccc1` [Compound 964, 3-oxo-3-phenylpropanenitrile] has a Floral [1] of 0.188, a Fruity [1] of 0.031 and a Spicy [1] of 0.312. The Sweet [1] was 0.781, the Pleasantness [1] was 5.256 and the “Rating (category of commercial prospect)” value [2] was “(D)”.

With `CCC1CCCCC1` [Compound 209, ethylcyclohexane] the Floral [1] was 0.233, the Fruity [1] was 0.1 and the Spicy [1] was 0. For the same molecule, the Sweet [1] was 0.567, the Pleasantness [1] was 4.453 and the Rating [2] was “(C)”.

With `CC(=O)C1CC1` [Compound 442, 1-cyclopropylethanone] the Floral [1] was 0.062, the Fruity [1] was 0.312 and the Spicy [1] was 0. For the same molecule, the Sweet [1] was 0.375, the Pleasantness [1] was 3.981 and the Rating [2] was “(D)”.

For `CC(C)OC(=O)C1(C(=O)OC(C)C)CC(=O)C1` [Compound 148, dipropan-2-yl 3-oxocyclobutane-1,1-dicarboxylate], the Floral [1] was 0.25, the Fruity [1] was 0.156 and the Spicy [1] was 0.125. The Sweet [1] was 0.25, the Pleasantness [1] was 5.334 and the Rating [2] was “(D)”.

`CC(C)CN1CCOCC1` [Compound 409, 4-(2-methylpropyl)morpholine] showed a Floral [1] of 0.133, a Fruity [1] of 0.067 and a Spicy [1] of 0. The Sweet [1] was 0.5, the Pleasantness [1] was 2.743 and the Rating [2] was “(D)”.

Work on `C1CCC(N2CCNCC2)CC1` [Compound 731, 1-cyclohexylpiperazine] yielded a Floral [1] of 0.094, a Fruity [1] of 0 and a Spicy [1] of 0.094. The Sweet [1] was 0.156, the Pleasantness [1] was 2.616 and the “Rating (category of commercial prospect)” value [2] was “(D)”.

For `COCc1ccc(COC)cc1` [Compound 783, 1,4-bis(methoxymethyl)benzene], the Floral [1] was 1.031, the Fruity [1] was 0.844 and the Spicy [1] was 0.844. For the same molecule, the Sweet [1] was 1.25, the Pleasantness [1] was 6.062 and the “Rating (category of commercial prospect)” value [2] was “(D)”.

Work on `COc1ccc(O)c(C=O)c1` [Compound 663, 2-hydroxy-5-methoxybenzaldehyde] yielded a Floral [1] of 0.281, a Fruity [1] of 0.719 and a Spicy [1] of 0.625. The Sweet [1] was 1.938, the Pleasantness [1] was 5.628 and the “Rating (category of commercial prospect)” value [2] was “(C)”.

`O=[N+]([O-])c1ccc2c(c1)CCN2` [Compound 436, 5-nitro-2,3-dihydro-1H-indole] gave a Floral [1] of 0, a Fruity [1] of 0.176 and a Spicy [1] of 0.353. For the same molecule, the Sweet [1] was 0.206, the Pleasantness [1] was 5.203 and the Rating [2] was “(D)”.

Molecule `COC(=O)CCC(C(C)=O)C(C)=O` [Compound 285, methyl 4-acetyl-5-oxohexanoate] has a Floral [1] of 0, a Fruity [1] of 0 and a Spicy [1] of 0.219. For the same molecule, the Sweet [1] was 0, the Pleasantness [1] was 4.834 and the Rating [2] was “(A)”.

`NC(=O)Oc1ccccc1` [Compound 934, phenyl carbamate] showed a Floral [1] of 0, a Fruity [1] of 0 and a Spicy [1] of 0. The Sweet [1] was 0.139 and the “Rating (category of commercial prospect)” value [2] was “(D)”.

Work on `CC(=O)c1ccc(O)c(C)c1` [Compound 722, 1-(4-hydroxy-3-methylphenyl)ethanone] yielded a Floral [1] of 0.5, a Fruity [1] of 0.469 and a Spicy [1] of 0.062. For the same molecule, the Sweet [1] was 0.844, the Pleasantness [1] was 5.3 and the “Rating (category of commercial prospect)” value [2] was “(A)”.

Molecule `CC(C)(C)c1ccccc1O` [Compound 950, 2-tert-butylphenol] has a Floral [1] of 0.389, a Fruity [1] of 0 and a Spicy [1] of 0.167. The Sweet [1] was 0.278 and the “Rating (category of commercial prospect)” value [2] was “(C)”.

`CCOC(=O)C#CC(=O)OCC` [Compound 63, diethyl but-2-ynedioate] gave a Floral [1] of 0.281, a Fruity [1] of 0.594 and a Spicy [1] of 0.469. The Sweet [1] was 0.75, the Pleasantness [1] was 3.903 and the Rating [2] was “(B)”.

In the case of `CCNC(=O)NCC` [Compound 700, 1,3-diethylurea], the Floral [1] is reported as 0.257, the Fruity [1] is reported as 0.086 and the Spicy [1] is reported as 0.571. The Sweet [1] was 0.143, the Pleasantness [1] was 4.869 and the “Rating (category of commercial prospect)” value [2] was “(D)”.
